System: bacterial biofilms
Assay: MBEC (Minimum Biofilm Eradication Concentration) assay using the Calgary Biofilm Device
Format: cell-based
Settings: 0.01% silver, 0.1M acetate buffer

CC(C)(C)CC(C)(C)c1ccc(OCCOCC[N+](C)(C)Cc2ccccc2)cc1 [benzethonium chloride]
Surfactant concentration required to eradicate biofilm in the MBEC model (pH 5.5): 0.025%
Surfactant concentration required to eradicate biofilm in the MBEC model (pH 6.2): ≤ 0.10%
Surfactant concentration required to eradicate biofilm in the MBEC model (pH 6.9): > 0.25%
